These are yes or no findings as the source states them, for the method shown. For part of these data: Binding seen in cells or lysates may run through a third protein. Some binding calls cover weakened binding; strength is not graded here.
Legend:
[1] = biological target: VvAGL11 (VvMADS5), BiFC fusion with half of YFP (Vitis vinifera cv. 'Xiangfei') (UniProt F6I457); assay: split reporter; BiFC: pSPYNE and pSPYCE fusions (halves of YFP) co-expressed in Nicotiana benthamiana leaves by Agrobacterium co-injection; confocal microscopy 48 h after infiltration
[2] = biological target: VvSEP3 (VvMADS4), BiFC fusion with half of YFP (Vitis vinifera cv. 'Xiangfei') (UniProt Q8LLR0); assay: as above
[3] = biological target: VvAGL11 (VvMADS5), yeast two-hybrid fusion (Vitis vinifera cv. 'Xiangfei') (UniProt F6I457); assay: two-hybrid; full-length CDSs in pGADT7 and pGBKT7, yeast strain AH109; growth on SD/-Trp/-Leu/-Ade/-His solid medium, positive colonies detected by X-α-Gal
[4] = biological target: VvSEP3 (VvMADS4), yeast two-hybrid fusion (Vitis vinifera cv. 'Xiangfei') (UniProt Q8LLR0); assay: as above

Chains of the proteins cited; added tags and fusions are not shown.
UniProt F6I457: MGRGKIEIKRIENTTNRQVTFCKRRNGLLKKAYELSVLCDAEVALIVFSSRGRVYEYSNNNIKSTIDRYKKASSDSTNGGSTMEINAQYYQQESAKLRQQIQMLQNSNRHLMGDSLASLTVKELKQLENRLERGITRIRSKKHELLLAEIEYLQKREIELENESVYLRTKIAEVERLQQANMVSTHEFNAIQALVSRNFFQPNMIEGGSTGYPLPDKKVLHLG
UniProt Q8LLR0: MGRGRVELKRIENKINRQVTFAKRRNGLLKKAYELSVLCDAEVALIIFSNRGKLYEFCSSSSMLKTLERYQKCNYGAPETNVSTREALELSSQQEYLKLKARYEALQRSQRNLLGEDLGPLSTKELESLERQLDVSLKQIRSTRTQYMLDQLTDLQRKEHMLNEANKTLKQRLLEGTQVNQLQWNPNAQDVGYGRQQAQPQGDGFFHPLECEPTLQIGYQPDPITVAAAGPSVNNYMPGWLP

Row | binding [1] | binding [2] | binding [3] | binding [4] | Substance
1 | binds | binds | – | – | VvSEP3 (VvMADS4), BiFC fusion with half of YFP (from UniProt Q8LLR0 1-242)
2 | – | – | binds | binds | VvSEP3 (VvMADS4), yeast two-hybrid fusion (from UniProt Q8LLR0 1-242)
3 | – | – | no binding | – | VvAGL11 (VvMADS5), yeast two-hybrid fusion (from UniProt F6I457 1-223)
4 | no binding | – | – | – | VvAGL11 (VvMADS5), BiFC fusion with half of YFP (from UniProt F6I457 1-223)

— paper PMC8146481
